From the supplement of paper PMC11732987, “Enantioselective OTUD7B fragment discovery through chemoproteomics screening and high-throughput optimisation” (Communications Chemistry, 2025)
The other results are listed elsewhere or left out. The data scatter; read single values as rough.

The chains behind the UniProt entries cited, without tags or fusion partners. Where a name states a change or a piece, a line headed by the entry shows the natural chain unless it says otherwise. Residues count along the entry.
UniProt P42285, 804-824: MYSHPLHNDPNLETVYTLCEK
UniProt P42285, 101-128: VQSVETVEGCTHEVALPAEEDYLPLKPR
UniProt B2RTY4: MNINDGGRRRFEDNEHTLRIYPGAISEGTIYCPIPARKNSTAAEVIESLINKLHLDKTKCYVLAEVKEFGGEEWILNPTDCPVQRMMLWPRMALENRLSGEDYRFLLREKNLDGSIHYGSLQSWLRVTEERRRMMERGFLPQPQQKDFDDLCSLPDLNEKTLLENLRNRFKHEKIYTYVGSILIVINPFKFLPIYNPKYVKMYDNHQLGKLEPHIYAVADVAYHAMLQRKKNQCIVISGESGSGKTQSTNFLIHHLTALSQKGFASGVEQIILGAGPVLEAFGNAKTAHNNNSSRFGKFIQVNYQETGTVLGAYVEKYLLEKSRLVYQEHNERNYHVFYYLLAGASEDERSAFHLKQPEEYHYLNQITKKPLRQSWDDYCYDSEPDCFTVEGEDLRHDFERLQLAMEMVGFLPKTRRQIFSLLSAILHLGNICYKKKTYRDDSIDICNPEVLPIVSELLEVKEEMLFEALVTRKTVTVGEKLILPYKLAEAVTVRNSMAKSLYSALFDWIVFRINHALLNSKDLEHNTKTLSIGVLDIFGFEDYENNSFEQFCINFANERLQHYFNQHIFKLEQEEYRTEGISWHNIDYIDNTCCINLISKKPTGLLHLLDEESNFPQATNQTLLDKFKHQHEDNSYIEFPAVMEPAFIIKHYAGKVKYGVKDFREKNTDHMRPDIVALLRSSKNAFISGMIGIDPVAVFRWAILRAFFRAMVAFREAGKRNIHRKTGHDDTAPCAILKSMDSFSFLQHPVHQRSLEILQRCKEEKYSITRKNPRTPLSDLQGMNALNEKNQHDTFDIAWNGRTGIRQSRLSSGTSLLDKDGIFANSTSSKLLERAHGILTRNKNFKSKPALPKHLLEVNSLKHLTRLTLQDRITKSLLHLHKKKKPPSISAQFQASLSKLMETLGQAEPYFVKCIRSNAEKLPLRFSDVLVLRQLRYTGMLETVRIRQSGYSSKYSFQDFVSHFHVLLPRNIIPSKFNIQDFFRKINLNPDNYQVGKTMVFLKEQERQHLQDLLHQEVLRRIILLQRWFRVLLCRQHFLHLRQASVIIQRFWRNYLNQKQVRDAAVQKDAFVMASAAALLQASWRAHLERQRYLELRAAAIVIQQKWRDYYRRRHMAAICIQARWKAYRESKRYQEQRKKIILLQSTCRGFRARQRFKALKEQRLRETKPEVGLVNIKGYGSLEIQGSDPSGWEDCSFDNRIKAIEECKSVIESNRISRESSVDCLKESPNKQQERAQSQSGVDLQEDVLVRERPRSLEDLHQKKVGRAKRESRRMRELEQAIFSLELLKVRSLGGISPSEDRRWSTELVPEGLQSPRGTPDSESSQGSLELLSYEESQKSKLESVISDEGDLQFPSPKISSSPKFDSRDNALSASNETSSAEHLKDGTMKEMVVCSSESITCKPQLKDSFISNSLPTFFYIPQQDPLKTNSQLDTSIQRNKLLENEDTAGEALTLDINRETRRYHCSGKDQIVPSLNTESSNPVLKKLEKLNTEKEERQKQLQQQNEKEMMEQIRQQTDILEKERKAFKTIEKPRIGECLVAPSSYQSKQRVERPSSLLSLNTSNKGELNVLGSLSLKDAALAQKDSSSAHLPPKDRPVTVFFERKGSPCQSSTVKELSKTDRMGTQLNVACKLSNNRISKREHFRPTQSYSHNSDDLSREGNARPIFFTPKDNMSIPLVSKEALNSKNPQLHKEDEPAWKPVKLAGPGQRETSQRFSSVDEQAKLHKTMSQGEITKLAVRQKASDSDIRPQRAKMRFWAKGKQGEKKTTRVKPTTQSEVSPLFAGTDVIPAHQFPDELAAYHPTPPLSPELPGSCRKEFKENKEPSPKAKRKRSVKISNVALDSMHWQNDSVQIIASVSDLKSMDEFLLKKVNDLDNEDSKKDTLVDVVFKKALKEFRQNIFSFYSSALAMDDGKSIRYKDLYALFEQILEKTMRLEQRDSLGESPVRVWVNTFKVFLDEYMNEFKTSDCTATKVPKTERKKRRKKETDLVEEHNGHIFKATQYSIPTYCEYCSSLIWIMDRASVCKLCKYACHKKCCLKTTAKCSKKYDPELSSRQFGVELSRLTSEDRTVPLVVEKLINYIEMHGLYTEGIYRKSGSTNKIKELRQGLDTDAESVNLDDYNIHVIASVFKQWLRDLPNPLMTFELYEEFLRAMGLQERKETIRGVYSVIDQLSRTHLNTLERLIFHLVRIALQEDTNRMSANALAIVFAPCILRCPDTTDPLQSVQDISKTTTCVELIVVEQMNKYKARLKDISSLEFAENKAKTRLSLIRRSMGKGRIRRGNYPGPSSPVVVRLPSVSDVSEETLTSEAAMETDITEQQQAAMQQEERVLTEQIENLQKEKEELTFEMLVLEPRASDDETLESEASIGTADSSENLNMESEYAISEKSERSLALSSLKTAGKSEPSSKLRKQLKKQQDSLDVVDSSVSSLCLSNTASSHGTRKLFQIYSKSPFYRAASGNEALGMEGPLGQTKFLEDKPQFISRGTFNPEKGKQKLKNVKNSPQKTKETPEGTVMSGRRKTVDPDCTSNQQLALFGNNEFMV
UniProt Q969V6, 310-330: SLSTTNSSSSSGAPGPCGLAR
UniProt Q969V6, 781-813: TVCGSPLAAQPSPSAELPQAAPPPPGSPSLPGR
UniProt O95544, 78-97: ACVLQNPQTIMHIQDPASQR
UniProt P54920: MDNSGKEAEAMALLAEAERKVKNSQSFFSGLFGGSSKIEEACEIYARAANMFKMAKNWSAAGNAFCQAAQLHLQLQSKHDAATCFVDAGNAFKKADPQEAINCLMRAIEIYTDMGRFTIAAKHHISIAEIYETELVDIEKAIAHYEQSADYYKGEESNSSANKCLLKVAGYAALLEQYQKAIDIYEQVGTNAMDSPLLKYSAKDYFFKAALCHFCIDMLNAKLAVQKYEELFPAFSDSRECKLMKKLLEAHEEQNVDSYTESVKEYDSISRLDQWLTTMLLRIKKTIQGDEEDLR
UniProt Q14CX7, whole entry, looked up: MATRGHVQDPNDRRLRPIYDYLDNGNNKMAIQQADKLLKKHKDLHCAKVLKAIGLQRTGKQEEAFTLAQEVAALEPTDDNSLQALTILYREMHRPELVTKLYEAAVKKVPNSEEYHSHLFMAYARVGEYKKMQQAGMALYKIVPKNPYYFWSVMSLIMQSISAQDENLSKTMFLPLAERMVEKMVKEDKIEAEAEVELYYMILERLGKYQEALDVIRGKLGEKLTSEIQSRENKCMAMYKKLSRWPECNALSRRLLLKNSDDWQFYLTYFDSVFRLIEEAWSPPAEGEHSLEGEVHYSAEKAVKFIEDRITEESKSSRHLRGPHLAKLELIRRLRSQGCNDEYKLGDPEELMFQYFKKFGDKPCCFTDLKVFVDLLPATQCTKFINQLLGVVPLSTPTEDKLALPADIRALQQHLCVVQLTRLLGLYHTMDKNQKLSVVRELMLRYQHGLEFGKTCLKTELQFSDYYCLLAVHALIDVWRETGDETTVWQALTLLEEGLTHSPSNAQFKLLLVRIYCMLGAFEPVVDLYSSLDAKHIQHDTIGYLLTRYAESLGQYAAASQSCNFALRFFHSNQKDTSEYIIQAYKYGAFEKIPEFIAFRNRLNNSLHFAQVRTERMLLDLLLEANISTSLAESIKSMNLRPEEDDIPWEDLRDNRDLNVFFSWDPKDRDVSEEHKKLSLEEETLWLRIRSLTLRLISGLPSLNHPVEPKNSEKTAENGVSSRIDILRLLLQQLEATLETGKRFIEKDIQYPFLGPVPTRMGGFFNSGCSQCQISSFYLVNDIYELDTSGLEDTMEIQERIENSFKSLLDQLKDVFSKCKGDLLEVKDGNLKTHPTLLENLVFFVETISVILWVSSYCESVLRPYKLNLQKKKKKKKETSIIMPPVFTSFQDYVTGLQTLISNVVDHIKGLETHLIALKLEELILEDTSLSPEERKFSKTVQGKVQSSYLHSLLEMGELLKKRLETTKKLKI
UniProt Q9Y2Z2: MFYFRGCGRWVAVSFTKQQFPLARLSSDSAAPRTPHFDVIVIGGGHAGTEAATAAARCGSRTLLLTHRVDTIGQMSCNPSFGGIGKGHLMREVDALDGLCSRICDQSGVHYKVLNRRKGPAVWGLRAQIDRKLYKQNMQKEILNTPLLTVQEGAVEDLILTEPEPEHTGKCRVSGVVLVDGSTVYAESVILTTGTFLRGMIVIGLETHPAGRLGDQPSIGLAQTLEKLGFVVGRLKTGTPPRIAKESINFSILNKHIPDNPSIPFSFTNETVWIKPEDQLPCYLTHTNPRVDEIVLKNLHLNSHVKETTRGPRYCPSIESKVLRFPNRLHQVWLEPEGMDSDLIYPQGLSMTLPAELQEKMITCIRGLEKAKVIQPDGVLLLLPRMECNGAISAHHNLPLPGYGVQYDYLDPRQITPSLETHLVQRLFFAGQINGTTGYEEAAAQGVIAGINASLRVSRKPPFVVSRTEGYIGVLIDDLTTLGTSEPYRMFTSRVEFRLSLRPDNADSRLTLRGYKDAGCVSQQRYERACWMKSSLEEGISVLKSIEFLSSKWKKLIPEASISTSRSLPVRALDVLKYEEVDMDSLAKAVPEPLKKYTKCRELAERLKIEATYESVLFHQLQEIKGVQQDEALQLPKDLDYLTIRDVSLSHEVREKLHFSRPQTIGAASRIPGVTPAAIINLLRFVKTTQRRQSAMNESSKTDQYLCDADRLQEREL
UniProt Q6P1R3: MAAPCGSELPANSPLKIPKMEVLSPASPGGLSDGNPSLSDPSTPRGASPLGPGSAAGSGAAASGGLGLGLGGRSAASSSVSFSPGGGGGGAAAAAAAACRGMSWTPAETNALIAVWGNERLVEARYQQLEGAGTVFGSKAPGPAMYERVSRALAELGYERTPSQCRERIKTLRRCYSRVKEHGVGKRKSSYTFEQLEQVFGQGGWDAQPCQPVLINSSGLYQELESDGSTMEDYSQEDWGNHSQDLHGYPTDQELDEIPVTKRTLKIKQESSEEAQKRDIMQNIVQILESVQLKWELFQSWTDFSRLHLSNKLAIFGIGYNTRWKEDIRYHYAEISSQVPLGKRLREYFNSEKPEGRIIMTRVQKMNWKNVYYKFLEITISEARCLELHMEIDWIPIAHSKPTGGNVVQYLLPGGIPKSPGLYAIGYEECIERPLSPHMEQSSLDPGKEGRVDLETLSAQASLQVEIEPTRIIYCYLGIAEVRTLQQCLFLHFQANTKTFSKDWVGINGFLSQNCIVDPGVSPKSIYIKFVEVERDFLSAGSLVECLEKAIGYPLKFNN
UniProt Q2M296, 252-277: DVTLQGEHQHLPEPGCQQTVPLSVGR
UniProt Q99707: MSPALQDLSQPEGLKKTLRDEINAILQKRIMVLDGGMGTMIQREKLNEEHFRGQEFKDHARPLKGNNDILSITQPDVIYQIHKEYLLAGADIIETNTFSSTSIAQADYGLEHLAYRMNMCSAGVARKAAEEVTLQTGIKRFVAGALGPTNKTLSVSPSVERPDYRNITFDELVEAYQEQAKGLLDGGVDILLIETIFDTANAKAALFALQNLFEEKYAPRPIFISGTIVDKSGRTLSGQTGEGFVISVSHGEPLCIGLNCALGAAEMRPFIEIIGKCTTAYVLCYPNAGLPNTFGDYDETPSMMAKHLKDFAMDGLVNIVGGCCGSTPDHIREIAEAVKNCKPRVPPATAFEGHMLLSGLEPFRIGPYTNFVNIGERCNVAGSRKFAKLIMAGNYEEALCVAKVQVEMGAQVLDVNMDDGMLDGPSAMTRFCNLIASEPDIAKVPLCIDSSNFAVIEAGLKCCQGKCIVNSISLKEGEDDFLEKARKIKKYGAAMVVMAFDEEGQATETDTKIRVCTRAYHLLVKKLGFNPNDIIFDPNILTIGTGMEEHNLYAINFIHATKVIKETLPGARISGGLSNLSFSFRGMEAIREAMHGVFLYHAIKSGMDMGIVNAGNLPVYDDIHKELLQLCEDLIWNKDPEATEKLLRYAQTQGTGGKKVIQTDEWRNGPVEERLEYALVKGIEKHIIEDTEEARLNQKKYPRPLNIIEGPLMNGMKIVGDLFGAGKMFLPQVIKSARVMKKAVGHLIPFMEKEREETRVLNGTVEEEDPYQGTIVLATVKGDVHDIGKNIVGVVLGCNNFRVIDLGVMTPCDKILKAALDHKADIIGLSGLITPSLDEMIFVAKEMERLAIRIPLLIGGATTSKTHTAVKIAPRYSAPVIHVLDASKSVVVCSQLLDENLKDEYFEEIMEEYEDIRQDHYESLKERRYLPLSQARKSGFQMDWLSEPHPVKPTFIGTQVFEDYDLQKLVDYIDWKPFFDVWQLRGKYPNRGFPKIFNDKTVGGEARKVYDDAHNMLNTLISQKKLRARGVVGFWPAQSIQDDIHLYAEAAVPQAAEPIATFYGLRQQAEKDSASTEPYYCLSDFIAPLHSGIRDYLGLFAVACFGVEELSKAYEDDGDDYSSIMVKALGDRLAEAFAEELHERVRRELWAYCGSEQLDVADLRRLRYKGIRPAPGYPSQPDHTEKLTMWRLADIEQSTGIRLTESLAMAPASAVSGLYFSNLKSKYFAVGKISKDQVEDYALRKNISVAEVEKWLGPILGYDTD

Legend:
[1] = compound: ClCC(=O)N[C@@H]1CCCc2ccccc12; assay: log2 mean competition ratio of IA-DTB cysteine labelling (DMSO/compound) (log2 ratio); higher = stronger cysteine engagement by compound; conditions: treatment time: 4 h, cell line lysate: HEK293T
Description: (§1)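 IA-DTB competitive cysteine chemoproteomics in HEK293T RIPA lysate. Lysates were treated with compound 29 or 30 at 50 or 200 µM for 4 h, then IA-DTB (500 µM, 1 h), trypsin-digested, NeutrAvidin-enriched and analysed by diaPASEF. Competition ratio = intensity DMSO / intensity compound (n=4 treated, n=64 DMSO); binding: mean log2 CR ≥ 1 and p ≤ 0.05 plus QC filters. Target is the cysteine site.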

[2] = compound: ClCC(=O)N[C@H]1CCCc2ccccc12; assay: as above; conditions: treatment time: 4 h, cell line lysate: HEK293T
Description: as §1

| Target | log2 mean competition ratio ([1]; 50 µM) | log2 mean competition ratio ([1]; 200 µM) | log2 mean competition ratio ([2]; 50 µM) | log2 mean competition ratio ([2]; 200 µM) |
| --- | --- | --- | --- | --- |
| MTMR4 C637 (UniProt Q9NYA4) | 0.045 | 0.275 | -0.262 | 0.15 |
| MYO10 C1874 (UniProt Q9HD67) | -0.0925 | 0.109 | -0.474 | 0.264 |
| MTRF1 C335 (UniProt O75570) | -0.142 | 0.0854 | -0.374 | 0.19 |
| MTREX C822 (UniProt P42285) | 0.103 | 0.0806 | 0.00514 | -0.0818 |
| MYCBP2 C222 (UniProt O75592) | 0.435 | 0.318 | 0.29 | 0.0438 |
| MYO1B C103 (UniProt O43795) | -0.115 | -0.202 | -0.0554 | -0.305 |
| MYO9A C32 (UniProt B2RTY4) | -0.39 | -0.264 | 0.0716 | -0.269 |
| MRTFA C326 (UniProt Q969V6) | 0.296 | 0.0637 | 0.0987 | 0.218 |
| MRPS7 C152 (UniProt Q9Y2R9) | 0.179 | -0.383 | -0.0186 | -0.0147 |
| MYO9A C1612 (UniProt B2RTY4) | -0.0314 | -0.116 | 0.115 | 0.0623 |
| NADK C79 (UniProt O95544) | 0.303 | 0.0298 | 0.228 | 0.0444 |
| MTREX C110 (UniProt P42285) | -0.194 | -0.345 | -0.166 | -0.57 |
| NAPA C84 (UniProt P54920) | -0.165 | -0.0775 | 0.022 | -0.116 |
| MTCH1 C385 (UniProt Q9NZJ7) | 0.0334 | -0.303 | 0.489 | -0.0806 |
| MVB12A C33 (UniProt Q96EY5) | -0.119 | -0.227 | 0.14 | -0.0499 |
| NAA25 C339 (UniProt Q14CX7) | -0.0038 | 0.0663 | -0.0339 | -0.134 |
| MRPL44 C53 (UniProt Q9H9J2) | -0.174 | -0.0476 | -0.14 | 0.0264 |
| NAA15 C309 | -0.0219 | -0.189 | 0.131 | -0.0921 |
| MRPL42 C45 (UniProt Q9Y6G3) | 0.0689 | 0.316 | 0.132 | 0.0846 |
| MRTFA C783 (UniProt Q969V6) | 0.0459 | 0.22 |  | -0.428 |
| NAPG C193 (UniProt Q99747) | 0.0733 | 0.00605 | 0.36 | -0.096 |
| MRPL58 C150 (UniProt Q14197) | -0.373 | -0.309 |  | -0.00857 |
| MTA1 C229 (UniProt Q13330) | -0.117 | 0.017 | -0.111 | -0.0397 |
| MTMR3 C928 (UniProt Q13615) | 0.013 | -0.0448 | 0.09 | 0.0103 |
| MRPL17 C129 (UniProt Q9NRX2) | 0.0168 | -0.241 | -0.25 | -0.242 |

Reprinted from the entries so far (eleven entries):

| Target | log2 mean competition ratio ([1]; 50 µM) | log2 mean competition ratio ([1]; 200 µM) | log2 mean competition ratio ([2]; 50 µM) | log2 mean competition ratio ([2]; 200 µM) |
| --- | --- | --- | --- | --- |
| MRTFA C326 (UniProt Q969V6) | 0.296 | 0.0637 | 0.0987 | 0.218 |
| MRPS7 C152 (UniProt Q9Y2R9) | 0.179 | -0.383 | -0.0186 | -0.0147 |
| MYO9A C1612 (UniProt B2RTY4) | -0.0314 | -0.116 | 0.115 | 0.0623 |
| NADK C79 (UniProt O95544) | 0.303 | 0.0298 | 0.228 | 0.0444 |
| MTREX C110 (UniProt P42285) | -0.194 | -0.345 | -0.166 | -0.57 |
| NAPA C84 (UniProt P54920) | -0.165 | -0.0775 | 0.022 | -0.116 |
| MTCH1 C385 (UniProt Q9NZJ7) | 0.0334 | -0.303 | 0.489 | -0.0806 |
| MVB12A C33 (UniProt Q96EY5) | -0.119 | -0.227 | 0.14 | -0.0499 |
| NAA25 C339 (UniProt Q14CX7) | -0.0038 | 0.0663 | -0.0339 | -0.134 |
| MRPL44 C53 (UniProt Q9H9J2) | -0.174 | -0.0476 | -0.14 | 0.0264 |
| NAA15 C309 | -0.0219 | -0.189 | 0.131 | -0.0921 |

(listing goes on)

| Target | log2 mean competition ratio ([1]; 50 µM) | log2 mean competition ratio ([1]; 200 µM) | log2 mean competition ratio ([2]; 50 µM) | log2 mean competition ratio ([2]; 200 µM) |
| --- | --- | --- | --- | --- |
| MTO1 C520 (UniProt Q9Y2Z2) | -0.12 | 0.0354 | 0.146 | 0.0998 |
| MYO1B C509 (UniProt O43795) | 0.3 | 0.136 | -0.118 | -0.0262 |
| MYL6 C32 | 0.494 | 0.122 | 0.279 | 0.176 |
| MTG1 C113 (UniProt Q9BT17) | -0.209 | 0.134 | -0.356 | -0.0531 |
| MRPL35 C150 (UniProt Q9NZE8) | 0.127 | 0.348 | 0.246 | 0.261 |
| MYO1E C447 (UniProt Q12965) | 0.0824 | 0.0589 | -0.638 | 0.278 |
| N4BP2L2 C578 | 0.0961 | -0.0181 | -0.175 | 0.101 |
| MSANTD2 C5 (UniProt Q6P1R3) | -0.154 | -0.0912 | -0.21 | 0.057 |
| NAPA C103 (UniProt P54920) | 0.143 | -0.246 | 0.148 | -0.16 |
| NAMPT C39 | -0.06 | -0.132 | 0.341 | -0.0414 |
| MTFMT C250 (UniProt Q96DP5) | -0.0495 | -0.0162 | 0.366 | 0.0354 |
| MYCBP2 C2044 (UniProt O75592) | -0.2 | -0.126 | 0.306 | -0.185 |
| MRPL39 C133 (UniProt Q9NYK5) | -0.136 | 0.16 | -0.284 | 0.0967 |
| MSH2 C843 (UniProt P43246) | -0.0594 | 0.0988 | 0.016 | -0.031 |
| NAA15 C465 | -0.201 | -0.006 | -0.072 | 0.213 |
| MTA2 C209 (UniProt O94776) | -0.106 | 0.115 | 0.0641 | 0.00164 |
| MSH6 C426 (UniProt P52701) | -0.0723 | -0.207 | -0.223 | -0.176 |
| MTARC2 C272 | -0.198 | 0.14 | -0.275 | 0.0936 |
| MYBBP1A C1046 (UniProt Q9BQG0) | 0.0458 | -0.234 | -0.0298 | -0.0319 |
| MTHFSD C267 (UniProt Q2M296) | -0.279 | -0.193 | -0.135 | -0.341 |
| NAA25 C381 (UniProt Q14CX7) | -0.00983 | -0.152 | -0.531 | -0.131 |
| MTR C120 (UniProt Q99707) | 0.0242 | -0.191 | 0.115 | 0.0108 |
| MRPS6 C105 (UniProt P82932) | -0.0796 | -0.289 | -0.0296 | -0.171 |
| MYO1D C460 (UniProt O94832) | -0.19 | 0.0793 | -0.455 | -0.221 |
